Paper PMC12375108
Results are given in words; binding and its absence hold for the method and conditions named. In cells and extracts the contact can be indirect. A yes stands for co-enrichment or nearness to the bait. Other partners may have been found. Sequences can lack the tags named with a protein.

Biological target: T1, GST-tagged E. coli hinT H101N (E. coli) (UniProt P0ACE7)
T1 sequence: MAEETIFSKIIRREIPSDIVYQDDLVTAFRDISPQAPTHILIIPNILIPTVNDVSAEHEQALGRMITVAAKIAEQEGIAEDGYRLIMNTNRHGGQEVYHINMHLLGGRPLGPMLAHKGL
Assay: affinity purification with mass spectrometry; label-free quantitative LC-MS/MS of proteins enriched with GST-Ec hinT H101N from YUMM3.3 SelO against SelO D338A lysates; filtered for mitochondrial proteins; only the target purified

- binding: binds
B1: PdhB, β subunit of pyruvate dehydrogenase E1 complex, endogenous in YUMM3.3 cells expressing SelO (enzyme, UniProt Q9D051 31-359)
chain: VQLTVREAINQGMDEELERDEKVFLLGEEVAQYDGAYKVSRGLWKKYGDKRIIDTPISEMGFAGIAVGAAMAGLRPICEFMTFNFSMQAIDQVINSAAKTYYMSAGLQPVPIVFRGPNGASAGVAAQHSQCFAAWYGHCPGLKVVSPWNSEDAKGLIKSAIRDNNPVVMLENELMYGVAFELPAEAQSKDFLIPIGKAKIERQGTHITVVAHSRPVGHCLEAAAVLSKEGIECEVINLRTIRPMDIEAIEASVMKTNHLVTVEGGWPQFGVGAEICARIMEGPAFNFLDAPAVRVTGADVPMPYAKVLEDNSVPQVKDIIFAVKKTLNI
modifications: AMPylated by SelO, residues not given
